Assay [1] has as its target C-terminus of SLAH3 (SLAH3-CT), yeast two-hybrid bait (Arabidopsis thaliana). The experiment in a line: two-hybrid; yeast strain AH109; SLAH3 regions in pGBT9BS as bait, SnRK1.1 and its fragments in pGADGH as prey; growth on synthetic dropout medium -L-W-H-A.
Assay [2] addresses N-terminus of SLAH3 (SLAH3-NT), yeast two-hybrid bait (Arabidopsis thaliana). The assay is described as above.

Where a chain is given by its changes, count along the chain named. Names may count otherwise. Results are given in words; binding and its absence hold for the method and conditions named. For part of these data: A result given as binding can be weak or reduced; the word gives no strength.

B1: SNF1-related protein kinase 1 (SnRK1.1), full length, yeast two-hybrid prey (protein, UniProt Q38997 1-512)
chain: MDGSGTGSRSGVESILPNYKLGRTLGIGSFGRVKIAEHALTGHKVAIKILNRRKIKNMEMEEKVRREIKILRLFMHPHIIRLYEVIETPTDIYLVMEYVNSGELFDYIVEKGRLQEDEARNFFQQIISGVEYCHRNMVVHRDLKPENLLLDSKCNVKIADFGLSNIMRDGHFLKTSCGSPNYAAPEVISGKLYAGPEVDVWSCGVILYALLCGTLPFDDENIPNLFKKIKGGIYTLPSHLSPGARDLIPRMLVVDPMKRVTIPEIRQHPWFQAHLPRYLAVPPPDTVQQAKKIDEEILQEVINMGFDRNHLIESLRNRTQNDGTVTYYLILDNRFRASSGYLGAEFQETMEGTPRMHPAESVASPVSHRLPGLMEYQGVGLRSQYPVERKWALGLQSRAHPREIMTEVLKALQDLNVCWKKIGHYNMKCRWVPNSSADGMLSNSMHDNNYFGDESSIIENEAAVKSPNVVKFEIQLYKTRDDKYLLDLQRVQGPQFLFLDLCAAFLAQLRVL
Consider B1, for which the binding entry in assay [1] is on record as “binds”; in assay [2], “no binding”.

B2: kinase-dead variant of SnRK1.1 (K48M), yeast two-hybrid prey (protein, UniProt Q38997 1-512)
chain: B1 chain with K48M
Turning to B2, the binding entry in assay [1] was “binds”.

(Values after paper PMC8154061.)
